Literature values, collected in patent publication US20040259184A1, “Fluorescent methods for the high-throughput quantification of tartrate-resistant acid phosphatase (TRAP)” (Pharmacia Corporation, priority 2003, published 2004).

Test system: OCL formation
Details: previously published data (Matsumoto 2000; Kumar 2001); read-out: IC50 of dose dependent inhibition of OCL formation; cited from earlier work

In the case of `C[S+]([O-])c1ccc(-c2nc(-c3ccc(F)cc3)c(-c3ccncc3)[nH]2)cc1` (stereo not shown) [SB203580], the IC50 is given as 3 µM.
